Assay [1] concerns the target G3BP1 (human (endogenous in neurons made from human fibroblasts or iPSCs)) (UniProt Q13283). The assay can be described thus: affinity purification with mass spectrometry; G3BP1 antibody on anti-rabbit IgG Dynabeads, ~3 mg lysate protein, 16 h at 4 °C; IP lysis buffer 50 mM Tris-HCl pH 7.4, 150 mM NaCl, 1 mM EDTA, 0.5% IGEPAL-CA630; lysates of iPSC-derived neurons (unstressed or 1 h sodium arsenite) and transdifferentiated neurons compared, n = 2.

Amino acid sequences for entries named in this document (tags omitted).
UniProt P99999: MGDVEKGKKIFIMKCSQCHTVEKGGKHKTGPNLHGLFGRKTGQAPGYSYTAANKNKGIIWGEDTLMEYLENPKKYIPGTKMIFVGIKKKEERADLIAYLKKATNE
UniProt O95793: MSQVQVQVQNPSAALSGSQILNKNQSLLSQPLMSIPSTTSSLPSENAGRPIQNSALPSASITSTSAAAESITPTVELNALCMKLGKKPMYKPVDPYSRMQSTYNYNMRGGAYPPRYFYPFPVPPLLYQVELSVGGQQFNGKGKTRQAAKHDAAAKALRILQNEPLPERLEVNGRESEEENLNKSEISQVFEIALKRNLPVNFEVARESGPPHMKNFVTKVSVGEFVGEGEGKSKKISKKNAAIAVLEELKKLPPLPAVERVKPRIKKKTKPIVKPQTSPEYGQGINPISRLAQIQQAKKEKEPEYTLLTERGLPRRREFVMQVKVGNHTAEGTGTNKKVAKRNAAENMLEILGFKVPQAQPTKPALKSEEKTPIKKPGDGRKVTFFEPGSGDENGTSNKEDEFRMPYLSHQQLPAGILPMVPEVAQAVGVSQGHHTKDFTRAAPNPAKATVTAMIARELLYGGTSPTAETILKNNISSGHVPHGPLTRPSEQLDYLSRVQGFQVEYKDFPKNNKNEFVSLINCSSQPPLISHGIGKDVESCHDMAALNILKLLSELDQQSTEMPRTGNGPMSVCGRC

Assay [2] has the same target. The assay can be described thus: condition: only in transdifferentiated (aged) neurons; affinity purification with mass spectrometry; G3BP1 antibody on Dynabeads, same buffers; lysate of transdifferentiated (aged) neurons only.
For assay [3], the target named is HSP90α (human (endogenous in neurons made from human fibroblasts or iPSCs)) (UniProt P07900). Nature of the assay: affinity purification with mass spectrometry; HSP90α antibody on anti-rabbit IgG Dynabeads, ~3 mg lysate protein, 16 h at 4 °C; IP lysis buffer 50 mM Tris-HCl pH 7.4, 150 mM NaCl, 1 mM EDTA, 0.5% IGEPAL-CA630; lysates of unstressed iPSC-derived neurons and transdifferentiated neurons compared, n = ….

No constants are given. Whether binding was seen depends on the method and setting. In cells and extracts the contact can be indirect. A yes stands for co-enrichment or nearness to the bait. Other partners may have been found. For some assays here: A no says only that the protein was not detected with the bait.

Turning to HSP90α (from UniProt P07900 1-732), the binding entry in assay [1] is given as “binds”.

For the substance VCP (from UniProt P55072 1-806), the binding entry is “no binding” in assay [2] and “binds” in assay [1].

Take “cytochrome c (from UniProt P99999 1-105)”: the binding entry in assay [3] was “binds”.

On to staufen-1 (from UniProt O95793 1-577), for which the binding entry in assay [1] is listed as “binds”.
